Assay results published in paper PMC7102962.
Results are given in words; binding and its absence hold for the method and conditions named. Binding seen in cells or lysates may run through a third protein. Some binding calls cover weakened binding; strength is not graded here. Sequences can lack the tags named with a protein.

Chains of the proteins cited; added tags and fusions are not shown.
UniProt P23772: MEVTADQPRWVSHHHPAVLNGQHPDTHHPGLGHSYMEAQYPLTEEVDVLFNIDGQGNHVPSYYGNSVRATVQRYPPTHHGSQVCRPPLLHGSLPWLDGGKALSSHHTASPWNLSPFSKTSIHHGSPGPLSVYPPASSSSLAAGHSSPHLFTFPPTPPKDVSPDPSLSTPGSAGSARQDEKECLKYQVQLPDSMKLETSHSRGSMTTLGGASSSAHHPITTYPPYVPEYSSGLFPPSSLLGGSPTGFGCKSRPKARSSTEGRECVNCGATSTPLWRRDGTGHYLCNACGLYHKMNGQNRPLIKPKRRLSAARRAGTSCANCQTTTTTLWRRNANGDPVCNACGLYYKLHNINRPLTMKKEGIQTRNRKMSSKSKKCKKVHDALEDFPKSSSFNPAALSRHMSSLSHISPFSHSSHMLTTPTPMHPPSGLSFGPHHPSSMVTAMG
UniProt P70338: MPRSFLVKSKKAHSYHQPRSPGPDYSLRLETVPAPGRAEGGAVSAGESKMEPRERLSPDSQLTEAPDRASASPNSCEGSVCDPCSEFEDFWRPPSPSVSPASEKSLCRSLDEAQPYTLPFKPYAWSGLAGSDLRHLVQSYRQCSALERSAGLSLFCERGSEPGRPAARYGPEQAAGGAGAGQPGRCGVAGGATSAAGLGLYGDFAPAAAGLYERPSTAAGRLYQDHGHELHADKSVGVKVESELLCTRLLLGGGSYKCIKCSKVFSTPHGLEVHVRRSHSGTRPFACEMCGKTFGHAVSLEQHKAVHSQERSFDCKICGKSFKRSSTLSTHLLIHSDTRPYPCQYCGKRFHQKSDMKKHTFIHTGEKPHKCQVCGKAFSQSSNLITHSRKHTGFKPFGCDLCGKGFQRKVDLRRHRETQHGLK

Key:
Assay in all cases: co-IP; nuclear extracts of 293 cells cotransfected with His-Six1 and an HA- or Flag-tagged partner; anti-HA or anti-Flag used to precipitate the tagged partner; IP buffer 20 mM Tris-HCl pH 8.0, 150 mM NaCl, 0.1% NP-40, 10% glycerol; western blot
Flag-Gata3 = Flag-Gata3 (UniProt P23772)
Flag-Rfx3 = target: T1, Flag-Rfx3 (UniProt P48381)
T1 sequence: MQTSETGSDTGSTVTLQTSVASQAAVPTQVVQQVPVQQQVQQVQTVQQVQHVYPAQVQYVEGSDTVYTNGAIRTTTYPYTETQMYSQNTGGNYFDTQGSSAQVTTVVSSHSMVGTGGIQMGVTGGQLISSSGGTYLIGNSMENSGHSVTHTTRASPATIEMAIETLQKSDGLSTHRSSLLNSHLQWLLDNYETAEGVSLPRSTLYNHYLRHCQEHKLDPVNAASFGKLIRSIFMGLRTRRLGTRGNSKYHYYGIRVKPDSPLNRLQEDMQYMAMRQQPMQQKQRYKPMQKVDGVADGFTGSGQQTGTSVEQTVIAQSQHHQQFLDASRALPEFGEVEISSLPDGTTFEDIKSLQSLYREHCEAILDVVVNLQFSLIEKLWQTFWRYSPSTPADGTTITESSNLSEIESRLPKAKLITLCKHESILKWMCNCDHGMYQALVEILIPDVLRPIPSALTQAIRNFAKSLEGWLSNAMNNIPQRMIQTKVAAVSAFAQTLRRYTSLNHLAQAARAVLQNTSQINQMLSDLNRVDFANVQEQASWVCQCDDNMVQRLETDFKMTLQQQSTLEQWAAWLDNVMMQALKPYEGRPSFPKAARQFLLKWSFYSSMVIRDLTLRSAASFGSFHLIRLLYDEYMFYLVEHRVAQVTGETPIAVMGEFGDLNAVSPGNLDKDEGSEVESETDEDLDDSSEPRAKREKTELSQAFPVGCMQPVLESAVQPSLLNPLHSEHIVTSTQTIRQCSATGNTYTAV

Flag-Pou4f3 = target: T2, Flag-Pou4f3 (UniProt Q63955)
T2 sequence: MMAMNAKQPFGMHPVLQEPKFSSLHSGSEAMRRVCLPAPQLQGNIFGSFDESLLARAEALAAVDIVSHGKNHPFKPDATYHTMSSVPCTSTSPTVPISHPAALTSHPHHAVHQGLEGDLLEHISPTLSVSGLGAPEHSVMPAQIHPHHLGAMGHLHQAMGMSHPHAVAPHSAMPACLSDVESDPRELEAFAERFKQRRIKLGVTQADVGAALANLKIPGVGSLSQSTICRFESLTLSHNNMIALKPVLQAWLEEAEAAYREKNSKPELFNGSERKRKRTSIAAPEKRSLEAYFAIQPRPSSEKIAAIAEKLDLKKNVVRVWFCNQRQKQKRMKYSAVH

Flag-Pbx1 = target: T3, Flag-Pbx1 (UniProt P41778)
T3 sequence: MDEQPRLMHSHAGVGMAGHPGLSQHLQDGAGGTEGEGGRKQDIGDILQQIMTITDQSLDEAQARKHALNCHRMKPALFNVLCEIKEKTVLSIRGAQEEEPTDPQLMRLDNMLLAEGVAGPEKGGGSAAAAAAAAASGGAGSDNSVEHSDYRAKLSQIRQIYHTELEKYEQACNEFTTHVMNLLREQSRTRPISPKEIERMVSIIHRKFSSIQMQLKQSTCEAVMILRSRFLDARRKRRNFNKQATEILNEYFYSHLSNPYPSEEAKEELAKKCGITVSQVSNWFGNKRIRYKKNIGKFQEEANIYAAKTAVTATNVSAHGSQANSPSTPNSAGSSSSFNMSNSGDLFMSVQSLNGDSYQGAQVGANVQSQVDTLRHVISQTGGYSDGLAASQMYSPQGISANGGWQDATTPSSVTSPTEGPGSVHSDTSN

HA-Atoh1 = target: T4, HA-Atoh1 (UniProt P48985)
T4 sequence: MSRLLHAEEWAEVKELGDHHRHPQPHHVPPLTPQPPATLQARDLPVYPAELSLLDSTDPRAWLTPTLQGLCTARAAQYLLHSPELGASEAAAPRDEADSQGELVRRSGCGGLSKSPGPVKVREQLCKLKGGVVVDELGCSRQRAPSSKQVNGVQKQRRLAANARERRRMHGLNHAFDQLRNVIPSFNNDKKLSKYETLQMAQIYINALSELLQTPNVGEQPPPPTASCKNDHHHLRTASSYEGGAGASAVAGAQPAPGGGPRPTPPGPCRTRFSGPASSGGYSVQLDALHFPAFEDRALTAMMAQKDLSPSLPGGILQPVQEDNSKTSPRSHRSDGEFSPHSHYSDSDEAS

Flag-Gfi1 = Flag-Gfi1 (UniProt P70338)

binding (Flag-Gata3): binds | binding (Flag-Rfx3): binds | binding (Flag-Pou4f3): binds | binding (Flag-Pbx1): binds | binding (HA-Atoh1): binds | binding (Flag-Gfi1): binds
B1: His-Six1 (protein, UniProt Q62231 1-284)
chain: MSMLPSFGFTQEQVACVCEVLQQGGNLERLGRFLWSLPACDHLHKNESVLKAKAVVAFHRGNFRELYKILESHQFSPHNHPKLQQLWLKAHYVEAEKLRGRPLGAVGKYRVRRKFPLPRTIWDGEETSYCFKEKSRGVLREWYAHNPYPSPREKRELAEATGLTTTQVSNWFKNRRQRDRAAEAKERENTENNNSSSNKQNQLSPLEGGKPLMSSSEEEFSPPQSPDQNSVLLLQSNMGHARSSNYSLPGLTASQPSHGLQAHQHQLQDSLLGPLTSSLVDLGS
